# In the supplement of paper PMC4807443:
# Where a name gives a salt, the structure may show the parent alone. Some of the results follow. The numbers are fractions of the control, whatever unit the source prints. Most entries show no effect beyond the scatter of the controls.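 A lentiviral reporter stably expressed in MIN6 mouse insulinoma beta cells uses Pdx1 and Ins1 promoters to drive separate nucleus-targeted fluorescent proteins; automated imaging with Hoechst nuclear stain counted cells. Possible hits were drugs shifting Ins1 promoter signal more than two median absolute deviations from DMSO controls, with Pdx1 activity roughly normal.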
# Tested on: MIN6
# Test: % Pdx1+ Ins1+ (double-positive, mature) cells relative to DMSO control (fold of DMSO control); higher = more mature Ins1 promoter-active cells
# Conditions: 8.5 µM; 48 h; glucose 5 mM
row,Structure (SMILES),% Pdx1+ Ins1+
1,COc1ccc(C(Cl)=C(c2ccc(OC)cc2)c2ccc(OC)cc2)cc1 [Chlorotrianisene],1.03
2,C[N+]1(C)C[C@H](O)C[C@H]1C(=O)[O-] [Betonicine],0.897
3,Cc1cc(C(C)(C)C)c(O)c(C)c1CC1=NCCN1 [Oxymetazoline hydrochloride],0.908
4,CN(C)CCCN1c2ccccc2Sc2ccccc21 [Promazine hydrochloride],0.915
5,NS(=O)(=O)c1cc(C(=O)O)cc(N2CCCC2)c1Oc1ccccc1 [Piretanide],0.609
6,COc1ccc([C@@H]2CC(=O)c3c(O)cc(O[C@@H]4O[C@H](CO[C@@H]5O[C@@H](C)[C@H](O)[C@@H](O)[C@H]5O)[C@@H](O)[C@H](O)[C@H]4O)cc3O2)cc1O [Hesperidin],1.01
7,C[C@]1(OC(=O)/C=C/c2ccccc2)C[C@@H](O)[C@]2(O)C=CO[C@@H](O[C@@H]3O[C@H](CO)[C@@H](O)[C@H](O)[C@H]3O)[C@@H]21 [Harpagoside],1.01
8,CSc1ccc2c(c1)C(N1CCN(C)CC1)Cc1ccccc1S2 (stereo unspecified) [Methiothepin maleate],0.797
9,COC(=O)[C@H]1[C@H]2C[C@H]3c4[nH]c5ccccc5c4CCN3C[C@@H]2CC[C@@H]1O [Corynanthine hydrochloride],1.01
10,O=C(C1CCCCC1)N1CC(=O)N2CCc3ccccc3C2C1 (stereo unspecified) [Praziquantel],1.06
11,C(=C\c1ccccc1)/CN1CCN(C(c2ccccc2)c2ccccc2)CC1 [Cinnarizine],1.07
12,COc1ccc2c(c1)c(CC(=O)O)c(C)n2C(=O)c1ccc(Cl)cc1 [Indomethacin],1.09
13,Nc1nc2ccc(OC(F)(F)F)cc2s1 [Riluzole hydrochloride],0.9
14,CC(C)(C)NCC(O)COc1cccc2c1CCC(=O)N2 (stereo unspecified) [Carteolol hydrochloride],0.918
15,C=C1c2c(Cl)ccc(O)c2C(=O)C2=C(O)[C@]3(O)C(=O)C(C(N)=O)=C(O)[C@@H](N(C)C)[C@@H]3[C@@H](O)[C@H]12.O=C(O)c1cc(S(=O)(=O)O)ccc1O [Meclocycline sulfosalicylate],0.825
16,CCOC(=O)O[C@]1(C(=O)COC(=O)CC)CC[C@H]2[C@@H]3CCC4=CC(=O)C=C[C@]4(C)[C@H]3[C@@H](O)C[C@@]21C [Prednicarbate],0.904
17,COc1ccc2c(c1OC)C(=O)O[C@@H]2[C@H]1c2c(cc3c(c2OC)OCO3)CCN1C [Noscapine],0.948
18,CC[C@H](C)[C@H](N)C1=N[C@H](C(=O)N[C@@H](CC(C)C)C(=O)N[C@H](CCC(=O)O)C(=O)N[C@H](C(=O)N[C@H]2CCCCNC(=O)[C@H](CC(N)=O)NC(=O)[C@@H](CC(=O)O)NC(=O)[C@H](Cc3cnc[nH]3)NC(=O)[C@@H](Cc3ccccc3)NC(=O)[C@H]([C@@H](C)CC)NC(=O)[C@@H](CCCN)NC2=O)[C@@H](C)CC)CS1 [Bacitracin],0.993

row,Structure (SMILES),% Pdx1+ Ins1+
1,CN1CCN(CCCN2c3ccccc3Sc3ccc(C(F)(F)F)cc32)CC1 [Trifluoperazine dihydrochloride],1.1
2,COc1ccc(OC)c(C(O)CNC(=O)CN)c1 (stereo unspecified) [Midodrine hydrochloride],1.11
3,CN(C(=O)C(Cl)Cl)c1ccc(OC(=O)c2ccco2)cc1 [Diloxanide furoate],0.983
4,Nc1ccn([C@H]2CC[C@@H](CO)O2)c(=O)n1 [Zalcitabine],0.878
5,Oc1c(I)cc(Cl)c2cccnc12 [Clioquinol],1.03
6,CN(C)CCOC(C)(c1ccccc1)c1ccccn1 (stereo unspecified) [Doxylamine succinate],1.1
7,CC(=O)c1ccc2c(c1)N(CCCN(C)C)c1ccccc1S2 [Acetopromazine maleate salt],0.829
8,CC(=O)[C@H]1CC[C@H]2[C@@H]3C=CC4=CC(=O)CC[C@@]4(C)[C@@H]3CC[C@]12C [Dydrogesterone],0.866
9,NC[C@@H]1O[C@H](O[C@H]2[C@@H](O)[C@H](O[C@@H]3[C@@H](O)[C@H](N)C[C@H](N)[C@H]3O[C@H]3O[C@H](CO)[C@@H](O)[C@H](O)[C@H]3N)O[C@@H]2CO)[C@H](N)[C@@H](O)[C@@H]1O [Paromomycin sulfate],1.06
10,COc1ccccc1OCC(O)CO (stereo unspecified) [Guaifenesin],0.853
11,Cc1cccc(C)c1OCC(C)N (stereo unspecified) [Mexiletine hydrochloride],1.14
12,Oc1ccc(/C=C/c2cc(O)cc(O)c2)cc1 [Resveratrol],0.768
13,Cc1c(N(C)C)c(=O)n(-c2ccccc2)n1C [Amidopyrine],1.11
14,CCCCc1cc2ccccc2c(OCCN(C)C)n1 [Dimethisoquin hydrochloride],0.87
15,Cc1cccc(C)c1NC(=O)C(C)N (stereo unspecified) [Tocainide hydrochloride],0.964
16,CN(C)C(=O)C(CCN1CCC(O)(c2ccc(Cl)cc2)CC1)(c1ccccc1)c1ccccc1 [Loperamide hydrochloride],1.01
17,O=C(OCC(O)CO)c1ccccc1Nc1ccnc2cc(Cl)ccc12 (stereo unspecified) [Glafenine hydrochloride],0.93
18,CC(C(=O)O)c1ccc(-c2ccccc2)c(F)c1 (stereo unspecified) [Flurbiprofen],0.943

# Grouped by structure: the entries above with a carbonyl joined to an NH by a bond outside any ring.
row,Structure (SMILES),% Pdx1+ Ins1+
15,C=C1c2c(Cl)ccc(O)c2C(=O)C2=C(O)[C@]3(O)C(=O)C(C(N)=O)=C(O)[C@@H](N(C)C)[C@@H]3[C@@H](O)[C@H]12.O=C(O)c1cc(S(=O)(=O)O)ccc1O [Meclocycline sulfosalicylate],0.825
18,CC[C@H](C)[C@H](N)C1=N[C@H](C(=O)N[C@@H](CC(C)C)C(=O)N[C@H](CCC(=O)O)C(=O)N[C@H](C(=O)N[C@H]2CCCCNC(=O)[C@H](CC(N)=O)NC(=O)[C@@H](CC(=O)O)NC(=O)[C@H](Cc3cnc[nH]3)NC(=O)[C@@H](Cc3ccccc3)NC(=O)[C@H]([C@@H](C)CC)NC(=O)[C@@H](CCCN)NC2=O)[C@@H](C)CC)CS1 [Bacitracin],0.993
2,COc1ccc(OC)c(C(O)CNC(=O)CN)c1 (stereo unspecified) [Midodrine hydrochloride],1.11
15,Cc1cccc(C)c1NC(=O)C(C)N (stereo unspecified) [Tocainide hydrochloride],0.964
